Source: ChEMBL document CHEMBL3988442, “University of Dundee, Small-Polar-MMV Screening Library” (2021).

The chains behind the UniProt entries cited, without tags or fusion partners. Residues count along the entry.
UniProt Q8IDJ8, 1-583: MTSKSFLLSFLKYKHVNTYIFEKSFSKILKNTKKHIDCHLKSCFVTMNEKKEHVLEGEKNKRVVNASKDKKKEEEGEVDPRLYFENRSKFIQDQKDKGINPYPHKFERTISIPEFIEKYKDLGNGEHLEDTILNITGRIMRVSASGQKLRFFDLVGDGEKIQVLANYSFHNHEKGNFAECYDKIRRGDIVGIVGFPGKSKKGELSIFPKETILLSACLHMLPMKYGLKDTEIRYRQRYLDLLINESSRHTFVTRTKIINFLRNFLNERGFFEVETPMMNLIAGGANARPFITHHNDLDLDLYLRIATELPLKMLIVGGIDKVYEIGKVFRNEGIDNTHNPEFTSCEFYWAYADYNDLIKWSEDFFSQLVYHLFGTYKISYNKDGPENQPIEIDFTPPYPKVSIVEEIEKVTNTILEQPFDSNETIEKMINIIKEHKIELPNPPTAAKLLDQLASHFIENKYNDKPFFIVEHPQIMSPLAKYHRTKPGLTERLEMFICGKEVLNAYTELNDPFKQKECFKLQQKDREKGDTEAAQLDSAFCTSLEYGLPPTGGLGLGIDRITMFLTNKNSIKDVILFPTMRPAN
UniProt A4I591, 1-473: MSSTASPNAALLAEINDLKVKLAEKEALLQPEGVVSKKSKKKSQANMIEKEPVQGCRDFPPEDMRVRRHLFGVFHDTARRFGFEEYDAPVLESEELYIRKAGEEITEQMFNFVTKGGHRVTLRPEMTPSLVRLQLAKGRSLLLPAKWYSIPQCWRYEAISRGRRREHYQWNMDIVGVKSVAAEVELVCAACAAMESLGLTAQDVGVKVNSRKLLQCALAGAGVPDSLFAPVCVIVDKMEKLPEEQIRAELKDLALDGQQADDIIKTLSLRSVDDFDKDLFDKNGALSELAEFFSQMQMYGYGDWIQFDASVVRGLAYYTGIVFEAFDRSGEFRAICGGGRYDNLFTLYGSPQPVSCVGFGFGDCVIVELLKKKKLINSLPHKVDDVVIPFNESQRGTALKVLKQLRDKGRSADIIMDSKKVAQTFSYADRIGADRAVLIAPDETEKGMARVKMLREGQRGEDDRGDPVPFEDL
UniProt Q4DA54, 1-478: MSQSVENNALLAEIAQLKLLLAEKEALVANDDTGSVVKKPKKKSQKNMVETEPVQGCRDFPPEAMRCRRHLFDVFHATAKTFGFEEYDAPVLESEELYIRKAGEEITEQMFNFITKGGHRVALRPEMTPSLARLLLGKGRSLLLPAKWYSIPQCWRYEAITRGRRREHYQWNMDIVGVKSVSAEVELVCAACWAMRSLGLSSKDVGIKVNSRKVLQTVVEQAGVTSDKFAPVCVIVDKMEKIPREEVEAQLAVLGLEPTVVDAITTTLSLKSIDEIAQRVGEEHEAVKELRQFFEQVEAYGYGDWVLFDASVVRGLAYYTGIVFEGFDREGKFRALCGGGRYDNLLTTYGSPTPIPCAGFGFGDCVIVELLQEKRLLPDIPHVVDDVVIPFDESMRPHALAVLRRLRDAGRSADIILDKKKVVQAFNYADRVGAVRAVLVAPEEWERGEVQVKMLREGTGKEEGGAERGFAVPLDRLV
UniProt P9WPC5, whole entry: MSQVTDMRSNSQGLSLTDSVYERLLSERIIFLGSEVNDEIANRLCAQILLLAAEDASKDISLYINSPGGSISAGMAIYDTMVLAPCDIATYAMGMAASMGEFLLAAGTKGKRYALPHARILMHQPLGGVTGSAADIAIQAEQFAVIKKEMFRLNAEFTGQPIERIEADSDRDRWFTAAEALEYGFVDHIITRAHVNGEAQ
UniProt P9WPC3, whole entry partner: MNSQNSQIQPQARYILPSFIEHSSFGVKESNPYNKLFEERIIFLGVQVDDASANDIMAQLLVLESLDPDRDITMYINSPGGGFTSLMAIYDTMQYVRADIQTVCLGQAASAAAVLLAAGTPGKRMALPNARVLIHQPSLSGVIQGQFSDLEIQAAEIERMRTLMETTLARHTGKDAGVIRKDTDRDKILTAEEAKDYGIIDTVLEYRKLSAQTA

PfKRS1: 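Enzyme assay of the cytosolic lysyl-tRNA synthetase in 384-well plates, read by luminescence. Target: Lysine-tRNA ligase, Plasmodium falciparum 3D7 (UniProt Q8IDJ8). Compounds at 30 µM. Direction is inferred from only a few compounds that gave an IC50; most scored high, so higher reads as stronger inhibition. Of about 69,000 compounds tested this way, about 49 (0.071%) reached 50% or more in at least one test.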
LiHisRS: 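Enzyme assay of histidyl-tRNA synthetase; the read-out is not stated. Target: Histidine-tRNA ligase, Leishmania infantum (UniProt A4I591). Concentration: 30 µM. Direction is inferred from retests: higher values go with stronger inhibition. The assay is labelled LdHisRS but filed under L. infantum. Of about 69,000 compounds tested this way, about 410 (0.6%) reached 50% or more in at least one test.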
TcHisRS: 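Histidine-tRNA ligase, Trypanosoma cruzi CL Brener (UniProt Q4DA54). Enzyme assay of histidyl-tRNA synthetase; the read-out is not stated. Tested at 30 µM. Higher reads as stronger inhibition (inferred: compounds with an IC50 in retests scored well above the rest). Of about 69,000 compounds tested this way, about 31 (0.045%) reached 50% or more in at least one test.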
Leishmania in macrophages: 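Cell assay of Leishmania donovani living inside macrophages; the read-out is not stated. Compounds at 30 µM. Higher reads as stronger inhibition (inferred: compounds with an IC50 in retests scored well above the rest). Of about 69,000 compounds tested this way, about 1,000 (1.5%) reached 50% or more in at least one test.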
ClpP1P2: 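ClpP1P2, Mycobacterium tuberculosis (UniProt P9WPC5 and UniProt P9WPC3). Protease assay of ClpP1P2, read by the AMC dye that it sets free. Concentration: 50 µM. Higher reads as stronger inhibition, judged from the few compounds that gave an IC50. Most other retested compounds had strongly negative values. Of about 69,000 compounds tested this way, about 10 (0.015%) reached 50% or more in at least one test.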

The filed quantity is “Percent Effect” (%).
The record does not define 0% and 100%; most values in the screen are far below 50% and negative numbers occur (in some assays of this library far below -100).
This is an unselected part of the compounds tested.
Two or more numbers in one place are separate tests of the same structure; such repeats can differ widely.
A dash means the value is not listed here; it may have been measured.

{"compound": "CCCc1nc(C(=O)N(C)Cc2cnn(-c3cccc(OC)c3)c2)cs1", "PfKRS1": 3.676, "LiHisRS": 31.43, "TcHisRS": 7.792, "Leishmania in macrophages": -0.5354, "ClpP1P2": 1.788}
{"compound": "CCOCC1CCN(C(=O)C(c2c(F)cccc2F)N(C)C)CC1", "stereo": "centres unmarked", "PfKRS1": -0.2179, "LiHisRS": 2.521, "TcHisRS": 3.922, "Leishmania in macrophages": -17.76, "ClpP1P2": 10.29}
{"compound": "COc1ccc(CN2CCN(C(C)=O)CC3(CC(=O)N(C)C3)C2)cc1.O=C(O)C(F)(F)F", "stereo": "centres unmarked", "Leishmania in macrophages": 36.71}
{"compound": "[H][C@@]12OCCC[C@]1([H])N(C(=O)c1cccc(C)n1)C[C@@H]2NS(C)(=O)=O", "Leishmania in macrophages": 17.96}
{"compound": "Cc1nccn1C1CCCN(C(=O)c2ccc3nncn3c2)C1", "stereo": "centres unmarked", "PfKRS1": 0.03368, "LiHisRS": 13.91, "TcHisRS": 8.046, "Leishmania in macrophages": 0.2237, "ClpP1P2": -8.091}
{"compound": "CC(C)Nc1nc2c(cc1C(=O)NCC1CC1)CCNCC2.O=C(O)C(F)(F)F.O=C(O)C(F)(F)F", "Leishmania in macrophages": 30.72}
{"compound": "c1ccc(OCc2nnn3c2CN(c2ncccn2)CCC3)nc1", "PfKRS1": -0.4091, "LiHisRS": 8.547, "TcHisRS": 9.816, "ClpP1P2": -7.917}
{"compound": "Cc1ccc(OC2(C(=O)O)CCN(C(=O)c3cc(C)oc3C)CC2)cn1", "PfKRS1": 9.387, "LiHisRS": 0, "TcHisRS": 1.02, "Leishmania in macrophages": 12.07, "ClpP1P2": -2.304}
{"compound": "CS(=O)(=O)NC1CCN(C(=O)NCc2cccnc2)CC1", "PfKRS1": 0.9212, "LiHisRS": 4.425, "TcHisRS": 6.122, "Leishmania in macrophages": -22.95, "ClpP1P2": -23.97}
{"compound": "CC(=O)N1CC[C@@H]2O[C@@H](COCC(=O)N3CCCC3)CC[C@@H]21", "PfKRS1": -4.073, "LiHisRS": 6.452, "TcHisRS": 2.632, "ClpP1P2": 0.5307}
{"compound": "CCc1ccccc1-n1nnc(C(=O)O)c1-c1ccccn1", "PfKRS1": 12.8, "LiHisRS": 25.71, "TcHisRS": -1.087, "Leishmania in macrophages": 3.996, "ClpP1P2": -2.814}
{"compound": "O=C(O)C(F)(F)F.O=C(O)C(F)(F)F.[H][C@@]12COC[C@]1(CNC(=O)c1ccno1)CN(Cc1cccc(C)n1)C2", "Leishmania in macrophages": 26.56}
{"compound": "O=C(c1ccc(-c2ccccc2)[nH]c1=O)N1CCN(C2CC2)CC1", "PfKRS1": 6.496, "LiHisRS": 14.61, "TcHisRS": 7.772, "Leishmania in macrophages": 25.14, "ClpP1P2": 5.117}
{"compound": "Cc1nc(CN2CCCC(NCCOCC(F)(F)F)C2)no1", "stereo": "centres unmarked", "PfKRS1": 6.269, "LiHisRS": 7.865, "TcHisRS": 1.504, "Leishmania in macrophages": -1.74, "ClpP1P2": 5.646}
{"compound": "c1c[nH]c(CN2CCCC(Cc3ccc(NC4CCCC4)nn3)C2)n1", "stereo": "centres unmarked", "PfKRS1": 1.119, "LiHisRS": 7.042, "TcHisRS": -1.538, "Leishmania in macrophages": 17.78, "ClpP1P2": -36.11}
{"compound": "COCCNc1ccc(CC2CCCNC2)cn1", "stereo": "centres unmarked", "PfKRS1": 5.45, "LiHisRS": 12.77, "TcHisRS": 6.977, "ClpP1P2": -0.3191}
{"compound": "O=C(NCCn1ccnc1)c1csc(Br)c1", "PfKRS1": -3.194, "LiHisRS": 31.43, "TcHisRS": -1.299, "Leishmania in macrophages": -1.815, "ClpP1P2": 2.229}
{"compound": "Cc1c(CC(=O)N2CCN(C(C)C)CC2)nnn1-c1ccccc1", "PfKRS1": -2.513, "LiHisRS": 22.35, "TcHisRS": -3.139, "Leishmania in macrophages": 18.48, "ClpP1P2": -14.76}
{"compound": "Cc1ccc(OCCN(C)C(=O)NC(C)c2nncn2C)cc1", "stereo": "centres unmarked", "PfKRS1": 0.7311, "LiHisRS": 13.79, "TcHisRS": 6.78, "Leishmania in macrophages": 5.7, "ClpP1P2": -22.38}
{"compound": "CC(=O)N(Cc1ccoc1)C1CCCCC1", "PfKRS1": 1.22, "LiHisRS": 1.587, "TcHisRS": 4.04, "Leishmania in macrophages": 1.432, "ClpP1P2": -0.8211}
{"compound": "CCc1noc(CS(=O)(=O)C/C=C/c2ccccc2)n1", "PfKRS1": 0.08269, "LiHisRS": 5.128, "TcHisRS": 2.703, "Leishmania in macrophages": 6.641, "ClpP1P2": -13.57}
{"compound": "CN(Cc1ccncc1)C1COC2(CCN(Cc3ccccn3)CC2)C1", "stereo": "centres unmarked", "PfKRS1": 8.595, "LiHisRS": 12.73, "TcHisRS": 9.091, "ClpP1P2": -1.044}
{"compound": "CN1CCCN(C(=O)NCc2ccccc2Cn2cncn2)CC1", "PfKRS1": -4.869, "LiHisRS": 4.082, "TcHisRS": 4.103, "Leishmania in macrophages": -4.455, "ClpP1P2": 1.554}
{"compound": "Cc1nc(CN2CCOC3(CCCC3)C2)oc1C", "PfKRS1": -3.372, "LiHisRS": 6.122, "TcHisRS": 5, "Leishmania in macrophages": 37.14, "ClpP1P2": -8.446}
{"compound": "CCN1CCN(c2ncc3c(=O)n(Cc4ccco4)ccc3n2)CC1", "PfKRS1": 8.153, "LiHisRS": 14.29, "TcHisRS": -0.8772, "Leishmania in macrophages": -8.566, "ClpP1P2": -14.65}
{"compound": "CC[C@]12CN3C[C@](C)(CN(C1)C3c1[nH]c(=O)[nH]c(=O)c1C)C2=O", "stereo": "some centres unmarked", "PfKRS1": 3.96, "LiHisRS": 6.522, "TcHisRS": 5, "Leishmania in macrophages": 2.092, "ClpP1P2": 6.067}
{"compound": "Cc1cc2c(c(=O)n1CCC(=O)O)C=CC(C)(C)O2", "PfKRS1": -0.4695, "LiHisRS": 15.71, "TcHisRS": 10.34, "Leishmania in macrophages": -0.5015, "ClpP1P2": -2.029}
{"compound": "COCc1ccccc1C(=O)NCC(c1c(F)cccc1F)N(C)C", "stereo": "centres unmarked", "PfKRS1": 2.434, "LiHisRS": 10.96, "TcHisRS": 7.027, "Leishmania in macrophages": 17.14, "ClpP1P2": -5.155}
{"compound": "Cc1cccc(Nc2nccnc2C2CCCN(CC(=O)N(C)C)C2)n1", "stereo": "centres unmarked", "PfKRS1": 2.975, "LiHisRS": 18.56, "TcHisRS": 8.889, "Leishmania in macrophages": "12.12 & 17.06", "ClpP1P2": -0.6052}

Repeated from the top, 4 entries:

Compound	PfKRS1	LiHisRS	TcHisRS	Leishmania in macrophages	ClpP1P2
CCCc1nc(C(=O)N(C)Cc2cnn(-c3cccc(OC)c3)c2)cs1	3.676	31.43	7.792	-0.5354	1.788
CCOCC1CCN(C(=O)C(c2c(F)cccc2F)N(C)C)CC1 (centres unmarked)	-0.2179	2.521	3.922	-17.76	10.29
COc1ccc(CN2CCN(C(C)=O)CC3(CC(=O)N(C)C3)C2)cc1.O=C(O)C(F)(F)F (centres unmarked)	-	-	-	36.71	-
[H][C@@]12OCCC[C@]1([H])N(C(=O)c1cccc(C)n1)C[C@@H]2NS(C)(=O)=O	-	-	-	17.96	-